Results from US20070286892A1, “COMPOSITIONS AND METHODS FOR PREVENTING OR REDUCING POSTOPERATIVE ILEUS AND GASTRIC STASIS IN MAMMALS” (priority 2006, published 2007).
For at least one compound, name, drawing or mass did not settle the structure.

Columns and labels:
[1] = tested on: gastric emptying and intestinal motility; assay: Charcoal transit model of postoperative ileus after abdominal surgery with cecal manipulation; format: in vivo, rat
Description: The charcoal transit model is an accetable and established model to study the effects of abdominal surgery on intestinal motility. We followed the procedure as described by De Winter et al. (1997) (Reference: Effect of adrenergic and nitrergic blockade on experimental ileus in rats. British Journal of Pharmacology (1997) 120, 464-468. Benedicte Y. De Winter, Guy E. Boeckxstaens, Joris G. De Man, Tom G. Moreels, Arnold G. Herman & Paul A. Pelckmans). The model simulates the abdominal procedure in human and tests for gastric emptying and intestinal motility by the transfer of a charcoal meal fed to the animals.
Male Sprague Dawley rats, weighing 250-275 g (8 in group) were anesthetized with a xylazine/ketamine cocktail, injected IM, the abdomen was shaved and disinfected with alcohol and Betadyne. A 2.5 cm incision was made from the xyphoid process caudally. The intestinal contents was exteriorized onto wet gauze. The cecum was manipulated gently for 1 minute. […]
The rats were treated with an oral solution of charcoal (10%) in acacia gum (2%). […] The intestines were exteriorized and the distance traveled by the charcoal meal was measured as well as the full length of the intestines (from the pylorus through the anus). Results are expressed as percent of distance traveled relative to the full length of the intestines.

adhesions = settings: local delivery in gel (NaCMC) formulations at the surgical site; cited from earlier work

COc1ccc(/C=C/C(=O)Nc2ccccc2C(=O)O)cc1OC [Tranilast]
Effect on POI ([1]; delivered via the ORC mesh, high dose more effective than low dose): effective in reducing the POI
Effect on POI (gastric emptying and GI motility) ([1]; delivered via the gel, both high and low doses): complete prevention of POI
Reduction of adhesions (adhesions): highly efficacious in reducing adhesions
